According to paper PMC3866170:
These are yes or no findings as the source states them, for the method shown. Binding seen in cells or lysates may run through a third protein. Binding calls can cover weak binding; strength is not graded here.

Sequences of proteins named here, by UniProt entry; tags and fusion partners are left off. A change or cut given only in a name is not applied to a line headed by its entry.
UniProt Q925J9: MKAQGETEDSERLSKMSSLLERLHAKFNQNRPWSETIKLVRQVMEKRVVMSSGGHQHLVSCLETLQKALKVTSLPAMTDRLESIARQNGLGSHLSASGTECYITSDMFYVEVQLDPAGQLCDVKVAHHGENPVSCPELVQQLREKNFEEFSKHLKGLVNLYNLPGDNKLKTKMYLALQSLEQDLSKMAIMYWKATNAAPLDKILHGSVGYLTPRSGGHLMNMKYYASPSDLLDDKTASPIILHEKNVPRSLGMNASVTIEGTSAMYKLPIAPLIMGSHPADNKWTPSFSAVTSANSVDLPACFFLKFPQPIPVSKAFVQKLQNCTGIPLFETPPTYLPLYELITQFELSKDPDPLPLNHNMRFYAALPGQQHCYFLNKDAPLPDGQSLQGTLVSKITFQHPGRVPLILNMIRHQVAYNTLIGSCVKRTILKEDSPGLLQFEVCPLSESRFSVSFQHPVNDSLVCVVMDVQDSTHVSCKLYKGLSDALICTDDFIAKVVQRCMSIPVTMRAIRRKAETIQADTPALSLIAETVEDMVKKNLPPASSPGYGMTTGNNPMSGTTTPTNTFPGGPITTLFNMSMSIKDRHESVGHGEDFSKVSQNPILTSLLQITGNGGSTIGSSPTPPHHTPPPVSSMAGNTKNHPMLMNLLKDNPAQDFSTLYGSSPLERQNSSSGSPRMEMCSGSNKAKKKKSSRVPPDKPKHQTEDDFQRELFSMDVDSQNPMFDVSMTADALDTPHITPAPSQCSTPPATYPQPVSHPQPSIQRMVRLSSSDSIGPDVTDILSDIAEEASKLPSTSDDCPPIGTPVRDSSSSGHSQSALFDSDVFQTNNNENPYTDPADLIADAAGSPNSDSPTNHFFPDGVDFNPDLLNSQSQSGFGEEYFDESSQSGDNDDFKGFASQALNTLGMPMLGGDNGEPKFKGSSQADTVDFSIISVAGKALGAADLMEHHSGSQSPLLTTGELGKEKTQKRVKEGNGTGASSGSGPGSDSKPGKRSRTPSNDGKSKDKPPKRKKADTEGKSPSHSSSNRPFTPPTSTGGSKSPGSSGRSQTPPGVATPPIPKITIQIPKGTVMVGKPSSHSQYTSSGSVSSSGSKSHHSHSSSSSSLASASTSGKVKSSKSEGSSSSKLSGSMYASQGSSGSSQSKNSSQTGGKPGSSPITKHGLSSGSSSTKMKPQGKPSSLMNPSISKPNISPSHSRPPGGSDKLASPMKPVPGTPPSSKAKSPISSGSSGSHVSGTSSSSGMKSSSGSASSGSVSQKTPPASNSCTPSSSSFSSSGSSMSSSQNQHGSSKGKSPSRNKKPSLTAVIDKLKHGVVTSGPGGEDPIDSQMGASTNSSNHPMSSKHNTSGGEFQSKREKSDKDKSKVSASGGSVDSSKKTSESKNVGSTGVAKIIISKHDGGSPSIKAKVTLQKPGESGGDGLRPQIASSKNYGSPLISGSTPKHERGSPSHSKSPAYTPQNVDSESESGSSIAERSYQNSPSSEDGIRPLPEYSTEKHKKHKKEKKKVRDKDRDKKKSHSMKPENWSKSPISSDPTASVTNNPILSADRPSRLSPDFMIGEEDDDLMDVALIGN

Molecular target: GST-Med1-C (1371-1560), unmodified (UniProt Q925J9)
Experiment: pull-down; GST fusion (unmodified or phosphorylated by purified ERK2) as bait, 35S labeled in vitro translated prey, incubated 2 h at 4°C, glutathione sepharose beads, SDS-PAGE and autoradiography; only the target purified

B1: 35S labeled in vitro translated PIMT-N (1-334) (domain or fragment, UniProt Q96RS0 1-334)
chain: MCCEKWSRVAEMFLFIEEREDCKILCLCSRAFVEDRKLYNLGLKGYYIRDSGNNSGDQATEEEEGGYSCGTAESHDSKGIGLDESELDSEAELMRSMGLPLQFGRITAHKDFEVSMNTRNKVKIKKKKHQKKYLDEIVQESWRKEYEEDDILASDDPSSIEQYENTRTYELQSKKDTETENPPVENTLSPKLEITEKWEKYWNEYGGGLLWQSWQEKHPGQALSSEPWNFPDTKEEWEQHYSQLYWYYLEQFQYWEAQGWTFDASQSCDTDTYTSKTEADDKNDEKCMKVDLVSFPSSPIMVDNDSSGTSDKDHSEILDGISNIKLNSEEVTQS
modifications: 35S labeled
Q: With B1 as the binder, how does the binding read?
A: Its binding is “binds”.
